A short description of the data set: intraperitoneal hepatic recycling glucose tolerance test (HRGTT) with [1, 2-^13C2]-glucose load. In kind it is in vivo, C57BL6 mice. To be noted: at 60 minutes, ip 1 mg/gm. As to the method:
Stable isotopes of the M2 isotopomer glucose was administered at 1 mg glucose/gm body weight by intraperitoneal injection. Animals were euthanized by an overdose of isoflurane anesthesia, and tissue from liver and skeletal muscle were rapidly dissected free, snap-frozen in liquid nitrogen, and stored at −80° C. until processed for isolation of RNA or glycogen. Cytosolic protein was extracted from the liver tissue after homogenization with 10 strikes in lysis buffer containing 0.25 M sucrose, I OmM Tris-HCL(pH7.4), 3 mM MgCL2, 0.1 mM PMSF, 20 mM NaF, 1 mM Na3VO4, 1 MM Na4P207, 1 μg/ml of leupeptin/aprotinin/pepstatin. The resulting cell lysate was filtered with 4 layers of cheesecloth. Nuclei were pelleted by centrifugation at 1000 g for 10 min. Mitochondria were precipitated by centrifugation at 15,000 g for 20 min from the supernatant. […] Protein concentration from cytosol were measured by using an absorbance at 595 run (BCA kit from Pierce). […] Density of each band was determined by scanning the exposed film. The time course of glucose and lactate isotopomers in plasma, and glucose isotopomers in liver glycogen was determined using gas chromatography/mass spectrometry. […] The absorption of administered glucose was monitored by the time course of M2 isotopomer, and hepatic glucose recycling by the time course of M1 isotopomer of glucose.

Regarding `OC[C@H]1OC(O)[C@H](O)[C@@H](O)[C@@H]1O` (stereo partly shown) [[1,2-^13C2]-glucose], the “plasma glucose level, peak” value was found to be 372 mg/dL.

Values taken from patent US20050238581A1, “Dynamic hepatic recycling glucose tolerance test” (priority 2002, published 2005).
